Measurements from publication PMC9903493.
No constants are given. Whether binding was seen depends on the method and setting. Binding seen in cells or lysates may run through a third protein. Some entries that bind do so weakly or less than the wild type.

Protein sequences, listed by entry. Tags and fused reporters are not part of them.
UniProt O00429: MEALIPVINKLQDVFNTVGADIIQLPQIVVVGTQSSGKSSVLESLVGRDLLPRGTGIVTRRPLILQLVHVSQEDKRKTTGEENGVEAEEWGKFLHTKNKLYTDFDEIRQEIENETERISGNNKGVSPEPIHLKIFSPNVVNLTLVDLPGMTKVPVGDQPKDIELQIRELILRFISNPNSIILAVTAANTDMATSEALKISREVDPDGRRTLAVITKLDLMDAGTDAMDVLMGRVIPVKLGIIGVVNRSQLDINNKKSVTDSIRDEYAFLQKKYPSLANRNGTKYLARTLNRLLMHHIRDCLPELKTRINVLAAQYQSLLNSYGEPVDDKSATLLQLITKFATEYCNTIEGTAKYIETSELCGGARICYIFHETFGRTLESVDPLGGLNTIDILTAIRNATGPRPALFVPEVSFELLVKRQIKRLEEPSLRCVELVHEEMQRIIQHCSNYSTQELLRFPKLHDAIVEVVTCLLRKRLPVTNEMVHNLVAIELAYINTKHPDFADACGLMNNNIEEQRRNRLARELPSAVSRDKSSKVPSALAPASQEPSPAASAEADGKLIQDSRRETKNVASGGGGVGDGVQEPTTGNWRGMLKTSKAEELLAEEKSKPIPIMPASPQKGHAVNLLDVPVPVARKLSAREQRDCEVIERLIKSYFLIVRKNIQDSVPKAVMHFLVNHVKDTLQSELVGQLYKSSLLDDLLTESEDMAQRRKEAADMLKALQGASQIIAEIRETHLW

Target: T1, Phosphoglycerate mutase 5 (human (endogenous in HK-2)) (UniProt Q96HS1)
T1 sequence: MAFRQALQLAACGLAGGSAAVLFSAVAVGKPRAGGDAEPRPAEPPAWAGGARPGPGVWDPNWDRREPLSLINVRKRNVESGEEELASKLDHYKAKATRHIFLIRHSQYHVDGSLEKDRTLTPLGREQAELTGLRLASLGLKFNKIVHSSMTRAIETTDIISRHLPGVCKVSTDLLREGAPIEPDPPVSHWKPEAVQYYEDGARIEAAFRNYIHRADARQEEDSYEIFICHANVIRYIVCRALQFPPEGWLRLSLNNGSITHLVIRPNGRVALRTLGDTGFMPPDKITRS
Test: co-IP; HK-2 cell lysates incubated with a PGAM5 antibody overnight at 4 °C, protein A/G agarose beads, western blot; normal IgG as negative control; endogenous proteins

**Q.** “Dynamin-related protein 1 (from UniProt O00429 1-736)” was tested. Which binding did it give?
**A.** binds
